## Library screening results

Measurements from “University of Dundee, Small-Polar-MMV Screening Library” (2021), ChEMBL document CHEMBL3988442.

Each number is a percent effect as filed. The record does not define 0% and 100%; most values in the screen are far below 50% and negative numbers occur (in some assays of this library far below -100). Compounds were drawn at random from those tested, without regard to their results.

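Whole-cell assay for inhibitors of Mycobacterium tuberculosis growth, labelled Cornell in the record; the read-out is not stated. The concentration is filed as 10 mM, unlikely as a test dose, so the dose is not known. Higher means stronger inhibition (inferred from two other growth screens of the library). About 53,000 compounds were tested under these conditions; 1.7% (about 900) showed 50% or more at least once.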

| compound | percent effect |
|---|---|
| `CC(C)(C)c1n[nH]c(C2CN(Cc3ncc[nH]3)CCO2)n1` (stereo not drawn) | -0.6758 |
| `N#CCCN(c1ccccc1)S(=O)(=O)CC1CCCCO1` (stereo not drawn) | 26.06 |
| `C1CC(CN2CCOCC3(CCN(C4CCOCC4)C3)C2)CCO1` (stereo not drawn) | -17.96 |
| `CCCN1CCCC2(CCN(c3nc(C)nc4ccsc34)C2)C1=O` (stereo not drawn) | -0.7033 |
| `O=C(Nc1cnn(Cc2ccc(Cl)cc2)c1)N1CCCC1CO` (stereo not drawn) | 22.89 |
| `[H][C@]12CC[C@]([H])(CN(c3nccc(OC)n3)C1)N(CC1CC1)C2` | 1.434 |
| `Cc1cccc(CN2CC3C[C@]3(NC(=O)c3ccoc3)C2)n1` (stereo partly drawn) | 35.35 |
| `COc1cc(/C=C/c2ncc(C(=O)O)s2)cc(OC)c1` | -22.07 |
| `COCCNC(=O)c1nc(-c2cn(C)cn2)n2ccccc12` | -9.821 |
| `Cn1nccc1-c1cnc2n1CCNC21CCN(C(=O)C2(C)CC2)CC1` | -0.8174 |
| `Cc1cc(Nc2ncccn2)nc(C2CCCN(CCO)C2)n1` (stereo not drawn) | -9.883 |
| `COc1cccc(CSCC(=O)NCc2cccnc2)c1` | 16.18 |
| `O=S(=O)(C1CC1)N1CCCC2(COCCN(c3nncs3)C2)C1` (stereo not drawn) | 3.51 |
| `CCC(=O)Nc1ccc(N2CCC(OC)CC2)c(C(F)(F)F)c1` | 33.3 |
| `COc1ccccc1CC(=O)N1CCC(OCc2cccnc2)CC1` | 15.72 |
| `CCN(CC)C(=O)COc1nc(C(C)C)no1` | -0.3151 |
| `CNC(=O)C1(c2cnccn2)CCCN1C(=O)c1c(F)cccc1F` (stereo not drawn) | -28.81 |
| `COc1ccc(CN(C)C(=O)NCc2c(C)cc(C)[nH]c2=O)cc1` | 0.6139 |
| `Cc1nn(C)c2c(=O)n(C(C)C)c(NCC3CCCO3)nc12` (stereo not drawn) | 15.97 |
| `CC(=O)N1CCC2(CCCN2Cc2cnn(C)c2)CC1.O=C(O)C(F)(F)F` | 5.955 |
| `COC(=O)N1CCCC(NC(=O)NCc2csc(C)n2)C1` (stereo not drawn) | 29.37 |
| `CC(NC(=O)NCCCN(C)S(C)(=O)=O)c1cccnc1` (stereo not drawn) | 3.023 |
| `[H][C@]12CC[C@]([H])(CN(Cc3ccccc3)C1)N(C(=O)c1cnc(SC)nc1)C2` | 5.714 |
| `COCCn1cnnc1CNc1cc(C)nc2c(C)c(C)nn12` | -11.33 |
| `CNS(=O)(=O)CC(=O)N(C1CCCC1)C1CC1` | 16.84 |
| `Cn1ccnc1CN1CCCN(C(=O)c2ccc3[nH]cnc3c2)CC1` | -5.749 |
| `O=C(O)C(F)(F)F.[H][C@@]12CN(Cc3cccs3)C[C@H](C(=O)NCCOC)[C@]1([H])CCO2` | -37.88 |
| `CN1CCN(c2ccc(NC(=O)c3ccccn3)c(C(F)(F)F)c2)CC1` | -27.82 |
| `COCCN1Cc2ccnn2CC(COCc2cccnc2)C1` (stereo not drawn) | -4.311 |
| `O=C1NC2(CCc3ccccc31)CCN(C(=O)c1cccnc1)C2` (stereo not drawn) | -0.9772 |
| `CCc1cc(=O)n(CC(=O)N2CCCC2)c(-c2cccc(F)c2)n1` | 16.73 |
| `O=C(C1CC=CC1)N1CC[C@@H](O)[C@H]1Cc1cccnc1` | 0.1061 |
| `CCNC(=O)[C@@H]1C[C@H](NC(=O)c2cc(CC)n[nH]2)CN1Cc1ccsc1` | -84.22 |
| `COc1ccc(CNC(Cc2cccs2)c2nc(C)c(C)s2)cc1OC.Cl` (stereo not drawn) | -12.36 |
| `Cc1ccccc1NC1CCN(C(=O)CCc2ccco2)CC1` | 50.28 |
| `CC(C)COC(=O)N1CCCN(Cc2nnc(C(C)(C)C)o2)CC1` | 26.38 |
| `CC(=O)c1cnc(NCCCN2CCOCC2)nc1C` | -15.87 |
| `Cc1cc(C(=O)Nc2ccc3oc(=O)n(CCN(C)C)c3c2)c(C)o1` | 35.8 |
| `N[C@@H]1CCC[C@@H](Oc2ccc(F)cc2Oc2cccc(F)c2)[C@@H]1O` | -6.004 |
| `O=C(Cc1cccc(F)c1)NCCNCC1CNc2ccnn2C1` (stereo not drawn) | 29.96 |
| `Cc1cnc(CN(C)Cc2cccc(OC(F)(F)F)c2)cn1` | -8.651 |
| `Cn1cc(NC(=O)N2CCC(c3ccccc3)CC2)ccc1=O` | 23.03 |
| `Cc1ccoc1CNCc1nnc2n1CC(C(F)(F)F)CC2` (stereo not drawn) | -19.19 |
| `Cc1noc(C)c1CC(=O)NCC1(O)CCCN(c2ccccn2)C1` (stereo not drawn) | -31.39 |
| `Cc1ccc(S(=O)(=O)NCCNC(=O)c2cncnc2C)cc1` | 0.7115 |
| `CC1CCN(S(=O)(=O)N2CCc3sccc3C2)CC1` | 45.74 |
| `CC(C(=O)N(C)C1CCCCC1)S(=O)(=O)Cc1csc(-c2cccs2)n1` (stereo not drawn) | 18.36 |
| `Cn1nc(C(C)(C)C)cc1NC(=O)CSc1nnc[nH]1` | 9.226 |
| `N#Cc1ccsc1N1CCC(Sc2ccncc2)C1=O` (stereo not drawn) | 21.06 |
| `CCC(C#N)NC(=O)COC1CCCCC1` (stereo not drawn) | 9.657 |
| `[H][C@@]12C[C@@H](OC)C[C@]1([H])CN(C(=O)c1cc3cccc(F)c3[nH]1)C2` | 6.005 |
| `O=C(O)C(F)(F)F.[H][C@@]12COC[C@]1(COCC(=O)N1CCCC1)CN(C1CCC1)C2` | -23.94 |
| `[H][C@]12CN(Cc3ccco3)C[C@@]1([H])OCCN(C(=O)c1cccn1C)C2` | -1.38 |
| `COc1cccc(N2CCN(C(C(=O)O)c3ccc(OC)nc3)CC2)c1` (stereo not drawn) | -3.443 |
| `COc1ccc(C)cc1NC(=O)Nc1cnc(O)nc1O` | 28.36 |
| `O=C(c1cc(-n2cnnn2)ccc1Cl)N1CCCCCC1` | 22.48 |
| `Cc1cc(CC(=O)N2CCc3cc(Br)sc3C2)n[nH]1` | 1.732 |
| `CN1CCCC2(CCN(C(=O)Cn3ncc4ccccc4c3=O)C2)C1=O` (stereo not drawn) | -12.48 |
| `COc1ccc(C(=O)COc2coc(CN3CCSCC3)cc2=O)cc1` | 19.24 |
| `CN(CC(O)C(F)(F)F)C(=O)Nc1cccc(N2CCCC2)c1` (stereo not drawn) | 31.04 |
| `CCNC(=O)C1CCN(Cc2ccccc2OCC(F)(F)F)CC1` | 3.064 |
| `CCOc1ccc(CN(C)C(C)C(=O)Nc2cc(C)no2)cc1` (stereo not drawn) | 27.26 |
| `COCC(=O)N1CCO[C@]2(CCC[C@H]2COC)C1` | -24.77 |
| `Cc1cc(N2CCC(NC(=O)CCC3CCCO3)CC2)nc(C)n1` (stereo not drawn) | 27.79 |
| `O=C(O)C(F)(F)F.O=C1N(Cc2ccncc2)CCC12CCCN(c1ncc(F)cn1)C2` (stereo not drawn) | -26.83 |
| `Cc1cnn(CCNCC(O)COc2c(C)ccc(C)c2C)c1` (stereo not drawn) | 33.17 |
| `Fc1ccc(CN2CCCn3nnc(COCC4CC4)c3C2)cc1.O=C(O)C(F)(F)F` | -4.242 |
| `CCOC(=O)N1CCN(Cc2ccc(OCc3nccn3C)cc2)CC1` | 13.23 |
| `CN(C)Cc1nn(C)c2c1CN(C(=O)Nc1cccc(F)c1)C2` | -26.08 |
| `CCn1cc2c(n1)C(COC)CN(C(=O)c1ccccn1)C2` (stereo not drawn) | 22.8 |
| `CCc1ncc2c(n1)CN(C(=O)CNC(=O)C(C)C)C2` | -15.33 |
| `Cc1ccc(CN2CCC3(CCCN(S(C)(=O)=O)C3)C2)o1` (stereo not drawn) | 21.36 |
| `Cc1cc(SC(C)(C)C)ccc1NCC(=O)NC(N)=O` | 19.98 |
| `Cc1ccsc1[C@@H]1CCN(C(=O)Cn2cc3ccccc3n2)C[C@H]1O` | 7 |

Repeated from the top, 8 entries:

{"compound": "CC(C)(C)c1n[nH]c(C2CN(Cc3ncc[nH]3)CCO2)n1", "stereo": "stereo not drawn", "percent effect": -0.6758}
{"compound": "N#CCCN(c1ccccc1)S(=O)(=O)CC1CCCCO1", "stereo": "stereo not drawn", "percent effect": 26.06}
{"compound": "C1CC(CN2CCOCC3(CCN(C4CCOCC4)C3)C2)CCO1", "stereo": "stereo not drawn", "percent effect": -17.96}
{"compound": "CCCN1CCCC2(CCN(c3nc(C)nc4ccsc34)C2)C1=O", "stereo": "stereo not drawn", "percent effect": -0.7033}
{"compound": "O=C(Nc1cnn(Cc2ccc(Cl)cc2)c1)N1CCCC1CO", "stereo": "stereo not drawn", "percent effect": 22.89}
{"compound": "[H][C@]12CC[C@]([H])(CN(c3nccc(OC)n3)C1)N(CC1CC1)C2", "percent effect": 1.434}
{"compound": "Cc1cccc(CN2CC3C[C@]3(NC(=O)c3ccoc3)C2)n1", "stereo": "stereo partly drawn", "percent effect": 35.35}
{"compound": "COc1cc(/C=C/c2ncc(C(=O)O)s2)cc(OC)c1", "percent effect": -22.07}